Experimental findings from paper PMC10175288 are described below.

Sequences of proteins named here, by UniProt entry; tags and fusion partners are left off.
UniProt Q02248: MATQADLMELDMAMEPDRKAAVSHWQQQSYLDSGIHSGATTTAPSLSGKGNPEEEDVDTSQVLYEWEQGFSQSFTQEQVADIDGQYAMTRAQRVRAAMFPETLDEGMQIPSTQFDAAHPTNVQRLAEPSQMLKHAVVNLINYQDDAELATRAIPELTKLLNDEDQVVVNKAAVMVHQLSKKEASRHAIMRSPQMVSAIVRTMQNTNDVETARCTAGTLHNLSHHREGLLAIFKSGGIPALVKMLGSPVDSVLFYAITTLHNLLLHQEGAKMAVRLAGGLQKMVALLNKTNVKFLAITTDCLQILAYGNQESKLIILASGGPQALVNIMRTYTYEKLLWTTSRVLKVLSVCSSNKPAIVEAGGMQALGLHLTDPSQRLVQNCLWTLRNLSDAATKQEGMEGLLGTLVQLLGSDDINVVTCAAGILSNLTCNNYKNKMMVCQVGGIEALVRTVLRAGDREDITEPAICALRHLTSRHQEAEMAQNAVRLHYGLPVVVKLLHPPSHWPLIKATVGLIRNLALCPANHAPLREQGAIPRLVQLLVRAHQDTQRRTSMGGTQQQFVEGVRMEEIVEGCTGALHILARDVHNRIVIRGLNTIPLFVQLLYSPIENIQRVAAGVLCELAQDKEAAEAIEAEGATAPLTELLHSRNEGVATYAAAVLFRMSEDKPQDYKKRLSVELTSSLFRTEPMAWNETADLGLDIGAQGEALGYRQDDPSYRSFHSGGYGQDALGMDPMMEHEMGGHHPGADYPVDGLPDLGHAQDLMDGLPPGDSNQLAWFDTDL
UniProt O35625: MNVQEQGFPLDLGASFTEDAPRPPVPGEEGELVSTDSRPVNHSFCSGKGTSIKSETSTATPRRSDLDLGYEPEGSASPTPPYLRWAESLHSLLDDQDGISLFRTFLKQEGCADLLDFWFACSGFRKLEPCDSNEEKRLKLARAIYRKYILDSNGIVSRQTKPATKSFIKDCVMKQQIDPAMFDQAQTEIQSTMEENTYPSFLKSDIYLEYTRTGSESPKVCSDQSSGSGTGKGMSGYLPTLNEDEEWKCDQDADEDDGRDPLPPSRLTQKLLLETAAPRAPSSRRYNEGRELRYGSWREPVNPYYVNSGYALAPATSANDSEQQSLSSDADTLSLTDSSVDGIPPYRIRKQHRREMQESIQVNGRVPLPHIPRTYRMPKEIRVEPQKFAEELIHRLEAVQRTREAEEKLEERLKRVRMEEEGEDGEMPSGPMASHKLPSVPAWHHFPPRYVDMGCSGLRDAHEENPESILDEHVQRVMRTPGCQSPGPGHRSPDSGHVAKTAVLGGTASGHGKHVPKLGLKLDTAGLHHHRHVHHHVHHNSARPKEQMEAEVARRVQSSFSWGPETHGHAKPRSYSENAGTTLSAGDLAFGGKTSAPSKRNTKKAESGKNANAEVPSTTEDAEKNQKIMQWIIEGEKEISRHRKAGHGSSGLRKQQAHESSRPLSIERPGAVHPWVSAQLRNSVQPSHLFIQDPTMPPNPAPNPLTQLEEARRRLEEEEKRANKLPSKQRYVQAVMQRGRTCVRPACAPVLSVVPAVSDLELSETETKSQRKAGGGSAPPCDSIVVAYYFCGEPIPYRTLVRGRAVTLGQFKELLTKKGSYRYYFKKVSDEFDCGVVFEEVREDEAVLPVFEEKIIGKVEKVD

Holding throughout (test): co-IP; lysates of dissociated mammospheres of mock or p140Cap TuBo and 4T1 cells; lysis buffer 150 mM NaCl, 50 mM Tris pH 7.4, 1% NP-40, 1 mM MgCl2, 5% glycerol; 1 or 2 mg of proteins with 1 or 2 ug of antibodies to p140Cap, β-Catenin, Axin1 or GSK-3β, protein G Dynabeads, 2 h at 4 °C, seven washes; immunoblot; β-Catenin IP also from mock TuBo mammospheres treated 5 days with 1 uM IWR-1 or DMSO
Background: In western blotting, separated proteins are transferred to a membrane and probed.

The target in experiment [1] is T1, p140Cap adaptor protein, encoded by the SRCIN1 gene, expressed by retroviral transduction (UniProt Q9QWI6).
T1 sequence: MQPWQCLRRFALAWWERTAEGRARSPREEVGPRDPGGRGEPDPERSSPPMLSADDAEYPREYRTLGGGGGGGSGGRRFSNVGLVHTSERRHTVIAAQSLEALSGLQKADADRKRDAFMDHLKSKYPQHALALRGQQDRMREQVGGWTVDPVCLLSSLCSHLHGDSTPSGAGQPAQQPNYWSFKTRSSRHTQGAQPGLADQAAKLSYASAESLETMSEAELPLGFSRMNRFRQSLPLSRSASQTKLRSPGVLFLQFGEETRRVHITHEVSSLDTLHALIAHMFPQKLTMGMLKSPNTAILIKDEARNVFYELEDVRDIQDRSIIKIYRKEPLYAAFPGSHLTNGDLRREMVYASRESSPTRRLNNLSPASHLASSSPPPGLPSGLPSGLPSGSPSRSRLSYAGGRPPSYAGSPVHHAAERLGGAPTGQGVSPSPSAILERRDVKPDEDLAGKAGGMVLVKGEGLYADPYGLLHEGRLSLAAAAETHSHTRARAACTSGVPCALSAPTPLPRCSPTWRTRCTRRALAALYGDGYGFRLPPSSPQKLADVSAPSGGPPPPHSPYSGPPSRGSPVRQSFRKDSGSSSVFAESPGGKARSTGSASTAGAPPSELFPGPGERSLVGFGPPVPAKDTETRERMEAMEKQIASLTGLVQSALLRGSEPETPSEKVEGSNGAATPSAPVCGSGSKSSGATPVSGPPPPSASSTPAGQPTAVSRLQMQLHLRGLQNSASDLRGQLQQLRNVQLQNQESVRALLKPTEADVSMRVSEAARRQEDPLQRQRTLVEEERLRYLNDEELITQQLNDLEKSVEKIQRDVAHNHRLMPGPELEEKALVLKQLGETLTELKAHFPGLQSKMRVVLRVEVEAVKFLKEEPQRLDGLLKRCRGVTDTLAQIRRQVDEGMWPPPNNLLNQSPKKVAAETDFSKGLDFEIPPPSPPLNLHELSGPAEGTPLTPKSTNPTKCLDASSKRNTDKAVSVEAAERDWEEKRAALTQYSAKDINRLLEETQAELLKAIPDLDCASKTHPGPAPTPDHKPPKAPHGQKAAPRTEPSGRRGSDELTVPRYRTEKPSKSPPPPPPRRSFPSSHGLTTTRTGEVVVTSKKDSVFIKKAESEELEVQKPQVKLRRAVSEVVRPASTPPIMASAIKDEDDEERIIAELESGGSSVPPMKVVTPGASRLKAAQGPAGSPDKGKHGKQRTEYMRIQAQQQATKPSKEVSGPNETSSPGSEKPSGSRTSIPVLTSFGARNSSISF

For experiment [2], the target named is β-Catenin (endogenous in TuBo and 4T1 mammospheres) (mouse (endogenous in TuBo and 4T1)) (UniProt Q02248).
Experiment [3] has as its target Axin1 (endogenous in TuBo and 4T1 mammospheres) (mouse (endogenous in TuBo and 4T1)) (UniProt O35625).

These are yes or no findings as the source states them, for the method shown. In cells and extracts the contact can be indirect. Some results given as binding are weak or reduced against the parent protein; the word gives no strength.

Take “Axin1 (endogenous in TuBo and 4T1 mammospheres) (from UniProt O35625 1-863)”: the binding result in experiment [1] and in experiment [2] was “binds” each time.
As for “β-Catenin (endogenous in TuBo and 4T1 mammospheres) (from UniProt Q02248 1-781)”, the binding result in experiment [1] and in experiment [3] was “binds” each time.
